Data set [1] has as its system BmeDI (Bacillus megaterium (DSM 319)). Nature of the data set: EMSA. The conditions noted are these: pH 8.3, 5 mM Ca2+, 5hmC at position 9 of strand 2, EMSA: 40 mM Tris-acetate pH 8.3 or 30 mM Mes-histidine pH 6.3 (pH at 25°C), 5 mM Ca-acetate (or 1 mM EDTA), 0.1 mg/ml BSA, 10% glycerol, 15 min, DNA 1-100 nM, recombinant protein, label: 5'-33P.
Data set [2] shares this test system. In words: KMnO4 footprinting. As to conditions: recombinant protein, label: 5'-33P.
The mark [3] stands for this setting: no difference from 39-H/H shown.

This is an account of results in paper PMC4259335.

The exact form of at least one protein or probe is not confirmed. For part of these data: Weaker means in comparison with the reference protein, sequence or condition of that experiment. For part of these data: At least one verdict was read from the data and is not stated in words by the source.

Consider “CGACGATACTTACCGGATAAGGCGCAATTAGATTACTTC (double strand) [39-C/H]”, for which, in data set [1] (setting [3]), the binding result was “binds”.
With “CGACGATACTTACCGGATAAGGCGCAATTAGATTACTTC (double strand) [39-H/H]”, the binding result in data set [1] (5hmC at position 9 of strand 1) is listed as “binds”.
“CGACGATACTTACCGGATAAGGCGCAATTAGATTACTTC (double strand) [39-M/H]”: the binding result in data set [1] (no difference from 39-H/H shown, 5mC at position 9 of strand 1) is “binds”.
With “CGACGATATTTACCGGATAAGGCGCAATTAAATTACTTC / GAAGTAATTTAATTGCGCCTTATCCGGTAAGTATCGTCG [39-T]”, in data set [2] (almost no T hyper-reactivity), the binding result is “binds more weakly”.
With “CGACGATATTTACCGGATAAGGCGCAATTAGATTACTTC (double strand) [39-H]”, the binding result in data set [1] (setting [3]) is “binds”.
As for “CGACGATATTTACCGGATAAGGCGCAATTAGATTACTTC / GAAGTAATCTAATTGCGCCTTATCCGGTAAGTATCGTCG [39-T/H]”, the binding result in data set [2] (T hyper-reactivity less pronounced but detectable, 5hmC at position 9 of strand 2) is listed as “binds”.
